This is one part of the list.

For 42 sequences, binding signal results are on record in paper PMC7819943, “Rice protein-binding microarrays: a tool to detect cis-acting elements near promoter regions in rice”.

The target in the assay is T1, OsSMF1 (Oryza sativa, UniProt Q6ZLB0 1-436).
T1 sequence: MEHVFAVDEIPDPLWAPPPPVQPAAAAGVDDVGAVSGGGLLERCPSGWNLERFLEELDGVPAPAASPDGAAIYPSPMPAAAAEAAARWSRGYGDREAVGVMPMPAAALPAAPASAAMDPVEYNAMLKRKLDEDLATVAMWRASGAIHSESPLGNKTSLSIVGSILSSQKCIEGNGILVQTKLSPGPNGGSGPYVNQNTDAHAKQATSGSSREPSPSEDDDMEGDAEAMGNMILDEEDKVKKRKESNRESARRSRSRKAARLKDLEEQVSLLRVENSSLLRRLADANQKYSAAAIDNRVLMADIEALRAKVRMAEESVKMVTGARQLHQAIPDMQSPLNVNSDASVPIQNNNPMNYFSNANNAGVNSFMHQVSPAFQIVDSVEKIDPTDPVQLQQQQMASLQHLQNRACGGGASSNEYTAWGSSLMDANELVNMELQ
As to the kind of experiment: protein-binding microarray (RPBM); PBS, 2% BSA, 51.3 ng/ul salmon testes DNA, 50 uM zinc acetate, 200 nM TF, 25 C, 1 h; high values mean tight binding. The following applies: protein: recombinant; tags: N-terminal polyhistidine and DsRed monomer fusion (pET32a); chain copies: 2; label: CyDye5-dUTP incorporated in the synthesized complementary strand; 3' TTTTT single-stranded linker to array surface; dsDNA, one strand shown. In a few lines: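 The binding signal for each feature is its fluorescence intensity in arbitrary units. An Axon 4000B scanner was used to read a custom Agilent array that had been made double-stranded with Cy5-dUTP primer extension, blocked with 2% BSA, incubated at 25 °C for 1 h with 200 nM protein in PBS, 2% BSA, salmon testes DNA and 50 µM zinc acetate, and washed. The protein was an N-terminal polyhistidine–DsRed transcription factor fusion from E. coli BL21-CodonPlus, purified on Ni–NTA.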
“ATTACAGCCATATGCTCAGCGCTGGCATTCATGTATTTTGCGGAGTCACCTAGTGCAG”: the binding signal is 4580 fluorescence intensity (a.u.).

Turning to “ATGGGCCTATCTTCTACTGACAGGTGGGACCGCCCGTGATCGGAGTCACCTAGTGCAG”, the binding signal was 4890 fluorescence intensity (a.u.).

As to “GACGGGTTTGTTATTGTGCTAGTGCTAAGGTCAATTGAGTCGGAGTCACCTAGTGCAG”, the binding signal is 3160 fluorescence intensity (a.u.).

As to “ACAACACATCATTGACACACAACTATACCAACGTTCTATCCGGAGTCACCTAGTGCAG”, the binding signal was 4820 fluorescence intensity (a.u.).

On to “ATATATATATATATATACAGATATACACACACACACACCGCGGAGTCACCTAGTGCAG”, for which the binding signal was 3320 fluorescence intensity (a.u.).

As to “TCTCCTAACTTCTCTCCTCCACCTCATCATCTAATCTTATCGGAGTCACCTAGTGCAG”, the binding signal was 4860 fluorescence intensity (a.u.).

For the sequence “CAACAGCAGCAGCTACAACGCGGCATCCATGGCCGCCGCGCGGAGTCACCTAGTGCAG”, the binding signal was 53300 fluorescence intensity (a.u.).

Consider “CAAGTTGTGACAGTTATACAAGTGTGGTGGATAAATTGTTCGGAGTCACCTAGTGCAG”, for which the binding signal is 3240 fluorescence intensity (a.u.).

Take “TCTAATAGCAATAGATGACTGGTGGTGACGCGTAACGTAGCGGAGTCACCTAGTGCAG”: the binding signal was 5550 fluorescence intensity (a.u.).

Turning to “ATAAAATCCACCGTGTCAATCCCCACGCCACACCAGAGGCCGGAGTCACCTAGTGCAG”, the binding signal was 5640 fluorescence intensity (a.u.).

Turning to “AGACAAACATTGCGTAATGCCTCGGACCTAATATAAAAGTCGGAGTCACCTAGTGCAG”, the binding signal is 15800 fluorescence intensity (a.u.).

With “CCATCTCATCATGCATAGCAGTTATCCATCTATTGCAATCCGGAGTCACCTAGTGCAG”, the binding signal was 3780 fluorescence intensity (a.u.).

Turning to “ATTCAAATGCCACCTAAGCGTCACGTCAACACCACAGATTCGGAGTCACCTAGTGCAG”, the binding signal was 10800 fluorescence intensity (a.u.).

“GTGCCTGCTCGATCGAGTCGTGGCGGCGGCGGAGTCAACTCGGAGTCACCTAGTGCAG”: the binding signal is 3370 fluorescence intensity (a.u.).

As for “CGCTGCTGCCGTCACAGAAGGTGCTGACATGGCCTGGGGTCGGAGTCACCTAGTGCAG”, the binding signal was 7520 fluorescence intensity (a.u.).

For the sequence “GAGAATAAACACGTGGCCAACTAACTTCATTACACAGTTTCGGAGTCACCTAGTGCAG”, the binding signal is 8420 fluorescence intensity (a.u.).

On to “CATCCATCCCACCACTCACCCATCCCTCCCAGTATAAGCCCGGAGTCACCTAGTGCAG”, for which the binding signal was 3570 fluorescence intensity (a.u.).

With “TAACATTAGACTATATGAAACAACTTTCGGTCAATATCTACGGAGTCACCTAGTGCAG”, the binding signal was 3380 fluorescence intensity (a.u.).

In the case of “CGGAGGGGTTCATCTCGGCGAAGACGTGGTCGGCCGTCCGCGGAGTCACCTAGTGCAG”, the binding signal was 4120 fluorescence intensity (a.u.).

With “AAAAGAAAAGAAAATAACACGTCATGTCCATGTAGCATATCGGAGTCACCTAGTGCAG”, the binding signal was 20200 fluorescence intensity (a.u.).

As for “AGGTACCTCCACGTACATATTTGCCCATGAGCTGGTACCGCGGAGTCACCTAGTGCAG”, the binding signal is 4760 fluorescence intensity (a.u.).

For “TGGGAGTCCCATGTGTTGCGTATTACTCCTACTTGTGTGCCGGAGTCACCTAGTGCAG”, the binding signal was 3210 fluorescence intensity (a.u.).

Regarding “CACATTTCATCTTATTATCCAATGCGCTGCAATTTCATGCCGGAGTCACCTAGTGCAG”, the binding signal was 29100 fluorescence intensity (a.u.).

For the sequence “ATTATGCCCCTTATTACATTTCAGCCTACAGCGATCTACCCGGAGTCACCTAGTGCAG”, the binding signal was 3280 fluorescence intensity (a.u.).

For the sequence “TGAGCTTCACGTAGATCTCATCGTCGTTGTCCACCACGTCCGGAGTCACCTAGTGCAG”, the binding signal is 3750 fluorescence intensity (a.u.).

Regarding “CGTCTCATGCACGGGGTGAAAGCACGATGACGAGCCACGGCGGAGTCACCTAGTGCAG”, the binding signal is 4110 fluorescence intensity (a.u.).

As for “GATGGAGAGGAGAGAGTAGTGAGTATGACATGTAGGGCTGCGGAGTCACCTAGTGCAG”, the binding signal is 5390 fluorescence intensity (a.u.).

For the sequence “GATGATGACAAACATGTTAGCGCCGTCCCTCTAGCCTCCTCGGAGTCACCTAGTGCAG”, the binding signal was 3520 fluorescence intensity (a.u.).

With “AAATGTCAAGTTGCATCACATCGTCGTCATTGACACTATTCGGAGTCACCTAGTGCAG”, the binding signal was 5790 fluorescence intensity (a.u.).

Turning to “AACACCGCCGTCTCCGTGGCCACCGCCGCCGCCGCCGCTCCGGAGTCACCTAGTGCAG”, the binding signal was 3840 fluorescence intensity (a.u.).

Consider “TTTATTACACAACGCAACTGGCCAGACTTTAGCGGGTCATCGGAGTCACCTAGTGCAG”, for which the binding signal is 46000 fluorescence intensity (a.u.).

“AGCTGGTGATGAGCAGCGTCACCAATTCTTCCTGGACGCCCGGAGTCACCTAGTGCAG”: the binding signal is 4190 fluorescence intensity (a.u.).

Take “AACTTATATAGTTAAATGATGAAATTGATGACACAGGCAACGGAGTCACCTAGTGCAG”: the binding signal was 3570 fluorescence intensity (a.u.).

For the sequence “TACTCGTAGTATCATTATTCTGTCGTGTGCTCCATGGAAACGGAGTCACCTAGTGCAG”, the binding signal is 3870 fluorescence intensity (a.u.).

Turning to “CTTTAGAAAAGAATTTCCCATAATGACTATGAATGCTTGTCGGAGTCACCTAGTGCAG”, the binding signal is 3820 fluorescence intensity (a.u.).

As to “CCGTCTTTGATGATGATGACGAGGACGACTGTGGAATGCCCGGAGTCACCTAGTGCAG”, the binding signal is 6440 fluorescence intensity (a.u.).

In the case of “TCCTTCCCTGCGCTGCACTGCACTGCACGCTCTCTCACGCCGGAGTCACCTAGTGCAG”, the binding signal was 18700 fluorescence intensity (a.u.).

For the sequence “TACAAATGCTTTCCAGATTTAATTAAGAAGCTTACATAGTCGGAGTCACCTAGTGCAG”, the binding signal was 4120 fluorescence intensity (a.u.).

Consider “AGTAATTAGCCACACTGCATATTAGCCACGACACCACAAGCGGAGTCACCTAGTGCAG”, for which the binding signal is 3850 fluorescence intensity (a.u.).

On to “ATGGCTGATGTGTTTTACCGATGGTTGATGTGTTTTACTGCGGAGTCACCTAGTGCAG”, for which the binding signal is 4440 fluorescence intensity (a.u.).

With “TATATGAAATTATTATTTGATTTCTTGATCATATAATGTACGGAGTCACCTAGTGCAG”, the binding signal is 3440 fluorescence intensity (a.u.).

With “GCTTCGCCTCGGCCGCGCGCGTGGGTTGGCGCCGTGGCAGCGGAGTCACCTAGTGCAG”, the binding signal was 4360 fluorescence intensity (a.u.).
